About 13,000 (3.2%) of roughly 400,000 compounds were called active. Inconclusive results, whose numbers are uncertain, are shown with a selection of clear calls. The call rests on the fitted dose curve; in most records, active means well fitted cell-killing curve with a large enough effect; inconclusive means small, poorly fitted or top-dose-only effect, or effect the other way; inactive means flat fitted curve, though single readings scatter. A potency beside an inconclusive call is a rough fit, not a confirmed value.
Test: qHTS assay for MDR1-selective chemotherapeutics: Primary screen using the drug-selected MDR subline cells KB-V1; further: nearly all actives have a fitted effect of over 60% in size
Details: KB-V1 MDR cells viability, CellTiter-Glo, 72 h; series mostly up to 46.1 µM
In short: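 KB-V1, DMEM (no phenol red) + 10% FBS; cpd pin-transferred, titration series; 72 h, 37 degrees C; CellTiter-Glo, luminescence. Data normalized, curve-fit.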
Potency means the concentration at half of the fitted maximal effect.

| Compound | Potency |
| --- | --- |
| CCN(CC)S(=O)(=O)c1ccc(N2CCCC2)c(NC(=O)Cc2ccc(OC)cc2)c1 | active: 23.1 µM |
| Cc1cc(C(=O)NCc2ccccc2Cl)c2c(C)nn(-c3cccc(F)c3)c2n1 | inactive |
| COc1ccc(/C=C/c2sc3ccccc3[n+]2CCCCI)cc1OC | inconclusive: 29.1 µM [cytotoxic, single point] |
| CC(=O)N1CCc2c(sc3c2c(=O)n(-c2ccc(C)cc2)c(=O)n3Cc2ccccc2C)C1 | inactive |
| Cc1cc(C)nc(N2CCCC(C(=O)NCC(c3ccccc3)c3ccccc3)C2)n1 (centres undefined) | inconclusive: 7.31 µM [cytotoxic, partial curve, poor fit] |
| CCCCC(CCCCl)C(=O)Nc1ccccc1 (centres undefined) | inconclusive: 29.1 µM [cytotoxic, single point] |
| O=c1[nH]c(SCc2nc3ccccc3n2Cc2ccccc2)nc2ccccc12 | inconclusive: 10.3 µM [cytotoxic, partial curve, poor fit] |
| CC(=O)c1cccc(NC(=O)c2ccc(-c3c(C)noc3C)c3ccoc23)c1 | inconclusive: 5.8 µM [cytotoxic, partial curve, poor fit] |
| O=C(OCCN1C(=O)c2cccc3c(N4CCOCC4)ccc(c23)C1=O)c1cccc(Cl)c1 | inconclusive: 25.9 µM [cytotoxic, partial curve, poor fit] |
| COc1ccc(-c2oc3ncn4nc(Cc5ccccc5)nc4c3c2-c2ccc(OC)cc2)cc1 | active: 3.66 µM |
| CC1CCCN(C(=O)CN2C(=O)CSc3ccc(S(=O)(=O)N4CCOCC4)cc32)C1 (centres undefined) | inconclusive: 16.4 µM [cytotoxic, single point] |
| COc1ccc(C2(C)NC(=O)N(CC(=O)Nc3ccc4c(c3)CCC4)C2=O)cc1OC (centres undefined) | inconclusive: 18.4 µM [rising, single point] |
| O=C(OCc1ccc(F)cc1)c1cc(S(=O)(=O)N2CCCCC2)ccc1N1CCOCC1 | inconclusive: 2.91 µM [cytotoxic, partial curve, poor fit] |
| N#CCSc1nc2ccccc2c2nc3ccccc3n12 | inconclusive: 29.1 µM [cytotoxic, single point] |
| c1csc(-c2csc3ncnc(NCCCN4CCOCC4)c23)c1 | active: 3.26 µM |
| CC(C)C(=O)OCc1cc(=O)n2nc(C3CC3)sc2n1 | inactive |
| Cc1cc(Br)c(S(=O)(=O)n2nnc3ccccc32)cc1C | inactive |
| CCN(CC)S(=O)(=O)c1cccc(C(=O)OCc2cc(=O)n3nc(C)sc3n2)c1 | inconclusive: 16.4 µM [cytotoxic, single point] |
| Cc1ccc(S(=O)(=O)N(C)C)cc1NC(=O)CSc1nc2ccccc2[nH]1 | active: 14.6 µM |

2 consecutive records from above, for reference:

| Compound | Potency |
| --- | --- |
| CC(=O)N1CCc2c(sc3c2c(=O)n(-c2ccc(C)cc2)c(=O)n3Cc2ccccc2C)C1 | inactive |
| Cc1cc(C)nc(N2CCCC(C(=O)NCC(c3ccccc3)c3ccccc3)C2)n1 (centres undefined) | inconclusive: 7.31 µM [cytotoxic, partial curve, poor fit] |

Source: PubChem BioAssay AID1347076 (National Center for Advancing Translational Sciences (NCATS), 2019)
